The values below come from PMC5712522 (Nature Communications, 2017).

The target in assay [1] is murine LIMP-2, full-length, heterologously expressed in HeLa cells (LIMP-2-myc; LIMP-2-HA) (murine) (UniProt O35114). Briefly: SDS–PAGE (denaturing gel) and immunoblot; cell lysates on denaturing gels, immunoblot.
Assay [2] shares this target. The experiment in a line: native gel or EMSA; Native PAGE Bis-Tris gel of cell lysates, immunoblot. On the technique in general: A gel shift assay detects complexes by their altered migration in electrophoresis.
For assay [3] the target is unchanged. Briefly: co-IP; HeLa cells co-transfected with LIMP-2-myc and LIMP-2-HA for 48 h; lysate with anti-myc antibody overnight at 4 °C, magnetic agarose G beads; co-precipitated LIMP-2-HA detected with anti-HA.
For assay [4] the target is unchanged. Briefly: cross-linking; UV (365 nm, 15 min) cross-linking in HeLa cells labelled 24 h with photo-methionine (1.5 mM) and photo-leucine (3 mM); SDS–PAGE and immunoblot. (Immunoblotting shows a protein as a band on a membrane.)
Assay [5] addresses endogenous LIMP-2 in wild-type mouse embryonic fibroblasts (mouse (endogenous in MEF)) (UniProt O35114). Briefly: native gel or EMSA; Native PAGE Bis-Tris gel of cell lysates, immunoblot.
Assay [6] has as its target endogenous full-length LIMP-2 in HeLa cells (human (endogenous in HeLa)) (UniProt Q14108). The experiment in a line: SDS–PAGE (denaturing gel) and immunoblot; cell lysates on denaturing gels, immunoblot.
Assay [7] has the same target. Briefly: native gel or EMSA; Native PAGE Bis-Tris gel of cell lysates, immunoblot.
For assay [8] the target is unchanged. The experiment in a line: cross-linking; UV (365 nm, 15 min) cross-linking in HeLa cells labelled 24 h with photo-methionine (1.5 mM) and photo-leucine (3 mM); SDS–PAGE and immunoblot.

No constants are given. Whether binding was seen depends on the method and setting. For some assays here: In cells and extracts the contact can be indirect. Some results given as binding are weak or reduced against the parent protein; the word gives no strength. For some assays here: Where a sequence is shown, tags or fusion partners need not be part of it.

B1: murine LIMP-2, full-length, heterologously expressed in HeLa cells (LIMP-2-myc; LIMP-2-HA) (protein, UniProt O35114 1-478)
chain: MGRCCFYTAGTLSLLLLVTSVTLLVARVFQKAVDQTIEKNMVLQNGTKVFNSWEKPPLPVYIQFYFFNVTNPEEILQGEIPLLEEVGPYTYRELRNKANIQFGENGTTISAVTNKAYVFERNQSVGDPNVDLIRTINIPLLTVVDLAQLTLLRELIEAMLKAYQQKLFVIHTVHELLWGYKDEILSLVHIFKPDVSPNFGLFYERNGTNDGEYVFLTGEDNYLNFSKIVEWNGKTSLDWWTTDTCNMINGTDGDSFHPLISKDEVLYLFPSDLCRSVHITFSSFENVEGLPAFRYKVPAEILANTSENAGFCIPEGNCMDSGVLNISICKNGAPIIMSFPHFYQADEKFVSAIKGMHPNKEEHESFVDINPLTGIILRGAKRFQINTYVRKLDDFVETGDIRTMVFPVMYLNESVLIDKETANQLKSVINTTLVVTNIPYIIMALGVFFGLVFTWLACRGQGSMDEGTADERAPLIRT
Take B1: the binding entry in assay [1], in assay [2], in assay [3] and in assay [4] was “binds” throughout.

B2: endogenous LIMP-2 in wild-type mouse embryonic fibroblasts (protein, UniProt O35114 1-478)
chain: B1 chain
For the molecule B2, the binding result in assay [5] is given as “binds”.

B3: endogenous full-length LIMP-2 in HeLa cells (protein, UniProt Q14108 1-478)
chain: MGRCCFYTAGTLSLLLLVTSVTLLVARVFQKAVDQSIEKKIVLRNGTEAFDSWEKPPLPVYTQFYFFNVTNPEEILRGETPRVEEVGPYTYRELRNKANIQFGDNGTTISAVSNKAYVFERDQSVGDPKIDLIRTLNIPVLTVIEWSQVHFLREIIEAMLKAYQQKLFVTHTVDELLWGYKDEILSLIHVFRPDISPYFGLFYEKNGTNDGDYVFLTGEDSYLNFTKIVEWNGKTSLDWWITDKCNMINGTDGDSFHPLITKDEVLYVFPSDFCRSVYITFSDYESVQGLPAFRYKVPAEILANTSDNAGFCIPEGNCLGSGVLNVSICKNGAPIIMSFPHFYQADERFVSAIEGMHPNQEDHETFVDINPLTGIILKAAKRFQINIYVKKLDDFVETGDIRTMVFPVMYLNESVHIDKETASRLKSMINTTLIITNIPYIIMALGVFFGLVFTWLACKGQGSMDEGTADERAPLIRT
For B3, the binding entry in assay [6], in assay [7] and in assay [8] was “binds” in each case.
